Measurements taken from publication doi:10.1101/150714.
Results are given in words; binding and its absence hold for the method and conditions named. For part of these data: Binding can be weak; no strength is given. For part of these data: Binding seen in cells or lysates may run through a third protein. For part of these data: Tags and fused reporters may be left off the sequences shown.

Protein sequences, listed by entry. Tags and fused reporters are not part of them. Lines headed by an entry give the natural chain unless they say otherwise; changes in a name come on top.
UniProt Q10337: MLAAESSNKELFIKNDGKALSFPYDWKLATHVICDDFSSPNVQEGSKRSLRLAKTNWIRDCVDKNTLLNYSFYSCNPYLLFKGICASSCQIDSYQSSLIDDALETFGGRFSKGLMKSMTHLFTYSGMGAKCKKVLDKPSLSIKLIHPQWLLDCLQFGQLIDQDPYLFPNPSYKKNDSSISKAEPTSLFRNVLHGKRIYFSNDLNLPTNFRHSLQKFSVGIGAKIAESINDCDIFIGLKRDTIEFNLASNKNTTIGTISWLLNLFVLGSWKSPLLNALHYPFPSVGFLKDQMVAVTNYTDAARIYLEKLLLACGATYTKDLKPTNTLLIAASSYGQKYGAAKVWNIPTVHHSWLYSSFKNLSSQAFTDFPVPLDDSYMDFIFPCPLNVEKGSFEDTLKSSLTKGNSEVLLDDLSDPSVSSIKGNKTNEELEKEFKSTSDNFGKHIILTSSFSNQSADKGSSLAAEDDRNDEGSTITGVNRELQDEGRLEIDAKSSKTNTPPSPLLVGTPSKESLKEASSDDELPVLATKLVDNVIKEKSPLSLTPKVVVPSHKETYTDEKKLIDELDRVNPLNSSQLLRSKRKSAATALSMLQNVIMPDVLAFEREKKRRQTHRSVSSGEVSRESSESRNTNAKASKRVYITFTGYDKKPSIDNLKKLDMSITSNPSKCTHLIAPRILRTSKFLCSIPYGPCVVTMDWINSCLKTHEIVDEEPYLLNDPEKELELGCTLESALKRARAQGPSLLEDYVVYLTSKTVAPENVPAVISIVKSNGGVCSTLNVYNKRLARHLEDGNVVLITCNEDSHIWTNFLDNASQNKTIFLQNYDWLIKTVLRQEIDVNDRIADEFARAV

B1: Rhp18, hits of the yeast two-hybrid screen (protein, UniProt O74747 1-387)
chain: MNELDATDPSDWNQTKIPSLKGLDSSLRCLICHEYFRAPLITSCSHTFCSFCIRDYLREHPMCPACRAPEQESRLRKNTILEEILESFKVIRPTLFEFLKVENVPKPVLQAPETVIAQDSASGDEEWEDDLASNSSPASIAKKTSRDSKKRKREDLVHCPACSNLVPHNQINQHLDSCLNSPSSPSSSSSPYKNKDNSKSNSLLSFKTDDDSITKRRLRSFNSADELPLKDRVRLPKLTYALLSESKIRSKLSEMGLPTDGHKQLLQRRHAKWVTLYNSNLDQKQPVSKRNLIRQLIDWERVQSKSIGVEKEKLGGGDWEKAYAEDFADLINRAKQSTTNKNDSLRNTAVESSTEPSTSNGFPATSVSPPLTIDLTNSQTGSDGPQS
B2: Rhp18 Mid zinc finger domain in pGADT7 (domain or fragment, UniProt O74747 111-202)
chain: APETVIAQDSASGDEEWEDDLASNSSPASIAKKTSRDSKKRKREDLVHCPACSNLVPHNQINQHLDSCLNSPSSPSSSSSPYKNKDNSKSNS
B3: 13myc-Rhp18 (protein, UniProt O74747 1-387)
chain: B1 chain
B4: full length Rhp18 in pGADT7 (protein, UniProt O74747 1-387)
chain: B1 chain
B5: Rhp18(R/M) fragment in pGADT7 (domain or fragment, UniProt O74747 1-202)
chain: MNELDATDPSDWNQTKIPSLKGLDSSLRCLICHEYFRAPLITSCSHTFCSFCIRDYLREHPMCPACRAPEQESRLRKNTILEEILESFKVIRPTLFEFLKVENVPKPVLQAPETVIAQDSASGDEEWEDDLASNSSPASIAKKTSRDSKKRKREDLVHCPACSNLVPHNQINQHLDSCLNSPSSPSSSSSPYKNKDNSKSNS
B6: Rhp18 N-terminal RING domain in pGADT7 (domain or fragment, UniProt O74747 1-117)
chain: MNELDATDPSDWNQTKIPSLKGLDSSLRCLICHEYFRAPLITSCSHTFCSFCIRDYLREHPMCPACRAPEQESRLRKNTILEEILESFKVIRPTLFEFLKVENVPKPVLQAPETVIA

Tests used:
[1] = biological target: full length Brc1, bait of the yeast two-hybrid screen (S. pombe) (UniProt Q10337); assay: two-hybrid
[2] = biological target: Brc1-R268K in pGBKT7 (S. pombe) (UniProt Q10337); assay: two-hybrid
[3] = biological target: Brc1-T672A in pGBKT7 (S. pombe) (UniProt Q10337); assay: two-hybrid
[4] = biological target: Brc1-G136A in pGBKT7 (S. pombe) (UniProt Q10337); assay: two-hybrid
[5] = biological target: Brc1(1-4) fragment in pGBKT7 (S. pombe) (UniProt Q10337); assay: two-hybrid
[6] = biological target: Brc1-W298F, P301G in pGBKT7 (S. pombe) (UniProt Q10337); assay: two-hybrid
[7] = biological target: full length Brc1 in pGBKT7 (S. pombe) (UniProt Q10337); assay: two-hybrid
TAP-Brc1 (S. pombe) = TAP-Brc1 (S. pombe) (UniProt Q10337); assay: co-IP
[8] = biological target: Brc1 fragment 1-2 in pGBKT7 (S. pombe) (UniProt Q10337); assay: two-hybrid

Row | Binder | binding [5] | binding [7] | further results
1 | B1 |  |  | binding [1]: binds
2 | B2 | binds | binds | binding [2]: binds; binding [3]: binds; binding [4]: binds; binding [6]: binds
3 | B3 |  |  | binding (TAP-Brc1 (S. pombe)): binds
4 | B4 | binds | binds | binding [8]: no binding
5 | B5 | binds | binds | 
6 | B6 | no binding | no binding | 
